For at least one entry, the source does not settle the construct or the ends of the probe. Protein sequences can lack the tags named with them.
What follows are sequences tested against T1, His-OsbR (Chromobacterium violaceum ATCC 12472) (UniProt Q7NR79) (assay: EMSA). Conditions: reduced OsbR; EMSA with 32P-labeled PCR probes and reduced His-OsbR; pH and temperature not given (refers to earlier papers); CHP pretreatment at room temperature; recombinant protein; protein details: His (pET15b); label: 32P 5' end; probe letters rebuilt from the primers and the genome.
T1 sequence (looked up, limits assumed): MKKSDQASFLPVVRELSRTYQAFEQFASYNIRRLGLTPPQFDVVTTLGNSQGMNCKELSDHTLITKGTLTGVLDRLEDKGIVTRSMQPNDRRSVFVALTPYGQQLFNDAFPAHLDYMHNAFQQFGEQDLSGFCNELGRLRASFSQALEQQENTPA

Binding result, binds:
ATCAAGCTTCATCGAAAGAGTCCCCGTGCTGTTCTTAAGCAGAGTGGTACAGAGTAAGGCCCTAATTGACAGAGTCACCTACAATTCTGACACGCGCTCTGGATAAATTCGCCTGTCTGAAATGTCATGTTCATCCAGACAAAATTTTCTAGATCGGCCTGTCCTTATCGGCAGTAAACAAGGCGGATCGATCGATGGCAGCGCGGGGAATGCCGGATTTCGGCATGACGCCAGCCTGGAATCGGTTTTTGTCAAGCGCCAGGGCATTGCCAAATGGTGCGCCGAGGCGGGCTTTCGTTATAATGAGCGAGAAATGCCCGCGAGCGGCGGGCCGGCAGCCGGAAAACGGCGGCCGGGCAGGGACAGGATAATAACGGGAAGCTGCCTGAAAAGCATCGCCGCAAGAAACGGGCGGGCATCCGGGGCGATCGGCGCGGGGCGCGGCGTCAGGGCGCTTGTTTACCGGCTCTTGATGGTTTTGGACAGGCGGCTTCGATTATTCGCCTTAATGCGGACTGGCTCTGCAGGGTACC (double strand) [osbR promoter]
GACCGACAATGACGGCTACGGCTTCTTCGCGGCGCTGGGCGATCTGCTGGTCACCGGCCCCACCCATACCAACGTCAACGATTTTCGCGCGATCCTGCTGCGGTAACGGAGTCGCGGCCAGCCGCGAGTCGGAACGCCGCCCGGCTCTCCACGATCCAGGCCATGCGATGCATGGCCTTTTTTGCGCGCGCATTCATGACATGGAGGTATGGTCAAGCCTACAGATCAGACTTTGTTCATCTTGACCCGAACTATCTTGGGCAACTATGATTCATATCAAAGTTTCAGAAATTCCTGAAAGTTGAGAATGTCATGAATATTCCACCTCTGGTGCAGGCTTTCGTGCTGCATTTCGGC (double strand) [CV_3659 promoter]
GCGACAACACCAGCAGCTTGCTGGCCAGGGTCTGGAAGCGGGGAGGGGCAAAACGGATGTCGGGCATGGGCATGGTTCTGCTTTTGGCGGATGGCAAACGGCGGCGGCGGACTGCACAATGTCTGGACGCGGTTATGGTTCAGATATGAATTGTTTAAACATAGCTTTTATCGATGGCCGCGACAATCCGTCAAAAGGAGAAGAAATGCAAGCGGTACTGGGCATATGCGGTTACTCGGGCAGCGGCAAGACCACCTTGCTGGAGGCGCTGCTGCCCTTGCTGGGGCGCCGGGGCTTGAGGGTGTCGGTGATC (double strand) [narX promoter]
